Measurements: US8471036B2, “Rhodacyanine derivative and pharmaceutical composition for treating leishmaniasis” (FUJIFILM Corporation, priority 2009, dated 2013)
Counter-ions that a name gives are not always drawn. Some entries share one result that the patent states for a list of compounds.

Tested on: Leishmania donovani (L. Don, MHOM/ET/67/L82 strain)
Assay: Leishmania protozoa proliferation inhibition test (amastigotes, Alamar Blue)
Format: cell-based
Conditions: protozoa inhibitory activity compared with miltefosine
Procedure: In this test, Leishmania donovani (L. Don, MHOM/ET/67/L82 strain) was used. The protozoa were maintained in the Syrian Golden hamster, and amastigotes were collected from the spleen of an infected hamster. A SM medium supplemented with 10% heat-inactivated fetal bovine serum was used in the experiment, and the pH was adjusted to 5.4. The protozoa were grown at 37° C. under an atmosphere having a CO2 concentration of 5%. The activity with respect to inhibition of the proliferation of leishmania protozoa was studied for Compounds A, C, and D according to the invention for test, and for MKT-077, Compound X, and miltefosine (positive compound, existing drug) as comparative compounds. The structures of the compounds are as shown below. Each compound was dissolved in DMSO to give a test solution having a predetermined concentration. Each of the compounds to be used in the test was dissolved in DMSO to give a test solution having a concentration of 10 mg/mL. […] The intensity of fluorescence at 588 nm was measured, and the residual ratios of leishmania protozoa in the group added with the test solution and in the control were calculated. […] The selective toxicity coefficient, which is used as an index of the selectivity against leishmania protozoa, was calculated according to the following equation, and the drug efficacy was evaluated. […]

| SMILES | Activity relative to miltefosine |
| --- | --- |
| CCn1c(=O)/c(=C/C=C2\Sc3ccccc3N2C)s/c1=C\c1sc2ccc(F)cc2[n+]1C [Compound D, 2-((3-ethyl-5-(2-(3-methylbenzo[d]thiazol-2(3H)-ylidene)ethylidene)-4-oxothiazolidin-2-ylidene)methyl)-5-fluoro-3-methylbenzo[d]thiazol-3-ium methanesulfonate] | more than 10 times |
| CCn1c(=O)/c(=C/C=C2\Sc3ccccc3N2C)s/c1=C\c1sc2ccc(F)cc2[n+]1C [Compound C, 2-((3-ethyl-5-(2-(3-methylbenzo[d]thiazol-2(3H)-ylidene)ethylidene)-4-oxothiazolidin-2-ylidene)methyl)-5-fluoro-3-methylbenzo[d]thiazol-3-ium maleate] | more than 10 times |
